Measured values published in patent publication US20030176373.
For some assays here: A negative result means that nothing was seen under these conditions. For some assays here: A weaker result is weaker than the reference pair of the same experiment.

Chains of the proteins cited; added tags and fusions are not shown. Chains listed by the source or under a name are the forms on record and can include a tag or linker.
Ku70/Ku80 heterodimer (Ku antigen) (Mus musculus), one chain, as listed by the source, chain 1 of 2: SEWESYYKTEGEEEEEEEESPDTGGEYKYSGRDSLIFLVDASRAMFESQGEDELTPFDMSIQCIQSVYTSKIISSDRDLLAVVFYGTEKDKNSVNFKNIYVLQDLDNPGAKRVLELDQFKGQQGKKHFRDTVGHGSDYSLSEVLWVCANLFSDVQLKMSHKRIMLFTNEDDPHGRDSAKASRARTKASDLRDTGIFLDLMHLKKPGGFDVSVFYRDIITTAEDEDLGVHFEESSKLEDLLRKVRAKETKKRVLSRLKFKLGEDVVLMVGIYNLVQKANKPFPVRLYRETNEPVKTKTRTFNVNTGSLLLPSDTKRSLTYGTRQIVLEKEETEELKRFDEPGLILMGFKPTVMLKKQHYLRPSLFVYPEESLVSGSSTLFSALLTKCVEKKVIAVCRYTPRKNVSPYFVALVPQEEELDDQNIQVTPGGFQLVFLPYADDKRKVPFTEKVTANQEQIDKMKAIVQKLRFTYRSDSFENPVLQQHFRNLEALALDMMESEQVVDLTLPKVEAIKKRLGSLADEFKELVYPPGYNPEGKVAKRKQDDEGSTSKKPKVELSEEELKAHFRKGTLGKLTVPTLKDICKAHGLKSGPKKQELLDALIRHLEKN
Ku70/Ku80 heterodimer (Ku antigen) (Mus musculus), one chain, as listed by the source, chain 2 of 2: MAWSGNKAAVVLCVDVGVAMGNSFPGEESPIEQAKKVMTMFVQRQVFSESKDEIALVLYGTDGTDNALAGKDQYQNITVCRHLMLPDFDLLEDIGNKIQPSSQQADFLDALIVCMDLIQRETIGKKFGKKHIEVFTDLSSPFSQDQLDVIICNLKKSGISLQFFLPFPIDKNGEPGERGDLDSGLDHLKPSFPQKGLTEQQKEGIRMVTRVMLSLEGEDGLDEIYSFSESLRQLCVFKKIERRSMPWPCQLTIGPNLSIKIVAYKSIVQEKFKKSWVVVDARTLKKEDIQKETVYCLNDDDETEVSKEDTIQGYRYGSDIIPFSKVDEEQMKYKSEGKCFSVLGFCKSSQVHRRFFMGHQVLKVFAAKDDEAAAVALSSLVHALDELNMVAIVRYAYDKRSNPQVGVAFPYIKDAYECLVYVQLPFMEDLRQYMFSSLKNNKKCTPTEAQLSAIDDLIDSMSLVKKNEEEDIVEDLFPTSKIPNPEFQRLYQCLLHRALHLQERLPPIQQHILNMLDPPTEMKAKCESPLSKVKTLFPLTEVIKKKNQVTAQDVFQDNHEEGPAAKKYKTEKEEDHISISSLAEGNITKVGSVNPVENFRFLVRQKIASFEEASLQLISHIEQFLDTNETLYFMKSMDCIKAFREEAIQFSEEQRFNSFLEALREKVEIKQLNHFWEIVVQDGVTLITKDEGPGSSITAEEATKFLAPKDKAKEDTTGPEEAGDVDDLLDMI

Experiments:
[1] = test system: DNA-PK (DNA-PKcs/Ku70/Ku80); test: activity assay; details: purified native protein, protein details: affinity-purified, Promega, single-stranded DNA
[2] = test system: Ku70/Ku80 heterodimer (Ku antigen) (Mus musculus); test: competition with a labelled probe; details: no significant competition at 0.1-0.4 ug; purified native protein; variant of ds-ISS-ODN
[3] = test system: Ku70/Ku80 heterodimer (Ku antigen) (Mus musculus); test: pull-down; details: Sepharose affinity column, KCl gradient elution 50 mM to 1.55 M; purified native protein
[4] = test system: Ku70/Ku80 heterodimer (Ku antigen) (Mus musculus); test: EMSA; details: anti-Ku supershift assay; 4 C; unlabeled ds-ISS competes; purified native protein; label: 32P
[5] = PS, no substantial DNA-PK activation, variant of ISS-ODN (ps-ss)

Sequence: TGACTGTGAACCTTAGAGATGA [Control-ODN (1) CpC (ps-ss)]
- activity on this sequence [1, 5]: not active

Sequence: TGACTGTGAACGTTAGAGATGA [po-ISS-ODN]
- activity on this sequence ([1]; weak activation only at 50-100 ng/reaction, variant of ISS-ODN (ps-ss)): less active

Sequence: TGACTGTGAACGTTAGAGATGA [methylated ISS-ODN (ps-ss)]
- activity on this sequence ([1]; PS, 5mC at C of CpG (position 11), DNA-PK kinase activation weaker than unmethylated, variant of ISS-ODN (ps-ss)): less active

Sequence: TGACTGTGAACCTTAGAGATGA (double strand) [ds-M-ODN]
- binding result [2]: no binding

Sequence: TGACTGTGAATATTAGAGATGA [Control-ODN (3) ApT (ps-ss)]
- activity on this sequence [1, 5]: not active

Sequence: TGACTGTGAACGTTAGAGATGA [methylated po-ISS-ODN]
- activity on this sequence ([1]; 5mC at C of CpG (position 11), weaker than unmethylated po-ISS-ODN, variant of po-ISS-ODN): less active

Sequence: TGACTGTGAACGTTAGAGATGA [ISS-ODN (ps-ss)]
- activity on this sequence ([1]; PS, stimulates GST-p53(1-70) phosphorylation, 0.1-1 ng/reaction, 5 mM MgCl2, 30 C, which ISS-ODN (SEQ 1 or 10) not stated): active

Sequence: TGACTGTGTTCCTTAGAGATGA [Control-ODN (2) TTCC (ps-ss)]
- activity on this sequence [1, 5]: not active

Sequence: TGACTGAACGTTCGAGATGA (double strand) [ds-ISS-ODN affinity column ODN]
- binding result [3]: binds

Sequence: TGACTGTGAAGGTTAGAGATGA [M-ODN GpG (ps-ss)]
- activity on this sequence [1, 5]: not active

Sequence: TGACTGTGAACGTTCGAGATGA (double strand) [ds-ISS-ODN]
- binding result [4]: binds
